Source: article PMC4827232
Results are given in words; binding and its absence hold for the method and conditions named. For some assays here: Binding seen in cells or lysates may run through a third protein. Some entries that bind do so weakly or less than the wild type. One block for each molecule: values may come before it.

By UniProt entry, the sequences of proteins in these tests, tags left out.
UniProt Q02485: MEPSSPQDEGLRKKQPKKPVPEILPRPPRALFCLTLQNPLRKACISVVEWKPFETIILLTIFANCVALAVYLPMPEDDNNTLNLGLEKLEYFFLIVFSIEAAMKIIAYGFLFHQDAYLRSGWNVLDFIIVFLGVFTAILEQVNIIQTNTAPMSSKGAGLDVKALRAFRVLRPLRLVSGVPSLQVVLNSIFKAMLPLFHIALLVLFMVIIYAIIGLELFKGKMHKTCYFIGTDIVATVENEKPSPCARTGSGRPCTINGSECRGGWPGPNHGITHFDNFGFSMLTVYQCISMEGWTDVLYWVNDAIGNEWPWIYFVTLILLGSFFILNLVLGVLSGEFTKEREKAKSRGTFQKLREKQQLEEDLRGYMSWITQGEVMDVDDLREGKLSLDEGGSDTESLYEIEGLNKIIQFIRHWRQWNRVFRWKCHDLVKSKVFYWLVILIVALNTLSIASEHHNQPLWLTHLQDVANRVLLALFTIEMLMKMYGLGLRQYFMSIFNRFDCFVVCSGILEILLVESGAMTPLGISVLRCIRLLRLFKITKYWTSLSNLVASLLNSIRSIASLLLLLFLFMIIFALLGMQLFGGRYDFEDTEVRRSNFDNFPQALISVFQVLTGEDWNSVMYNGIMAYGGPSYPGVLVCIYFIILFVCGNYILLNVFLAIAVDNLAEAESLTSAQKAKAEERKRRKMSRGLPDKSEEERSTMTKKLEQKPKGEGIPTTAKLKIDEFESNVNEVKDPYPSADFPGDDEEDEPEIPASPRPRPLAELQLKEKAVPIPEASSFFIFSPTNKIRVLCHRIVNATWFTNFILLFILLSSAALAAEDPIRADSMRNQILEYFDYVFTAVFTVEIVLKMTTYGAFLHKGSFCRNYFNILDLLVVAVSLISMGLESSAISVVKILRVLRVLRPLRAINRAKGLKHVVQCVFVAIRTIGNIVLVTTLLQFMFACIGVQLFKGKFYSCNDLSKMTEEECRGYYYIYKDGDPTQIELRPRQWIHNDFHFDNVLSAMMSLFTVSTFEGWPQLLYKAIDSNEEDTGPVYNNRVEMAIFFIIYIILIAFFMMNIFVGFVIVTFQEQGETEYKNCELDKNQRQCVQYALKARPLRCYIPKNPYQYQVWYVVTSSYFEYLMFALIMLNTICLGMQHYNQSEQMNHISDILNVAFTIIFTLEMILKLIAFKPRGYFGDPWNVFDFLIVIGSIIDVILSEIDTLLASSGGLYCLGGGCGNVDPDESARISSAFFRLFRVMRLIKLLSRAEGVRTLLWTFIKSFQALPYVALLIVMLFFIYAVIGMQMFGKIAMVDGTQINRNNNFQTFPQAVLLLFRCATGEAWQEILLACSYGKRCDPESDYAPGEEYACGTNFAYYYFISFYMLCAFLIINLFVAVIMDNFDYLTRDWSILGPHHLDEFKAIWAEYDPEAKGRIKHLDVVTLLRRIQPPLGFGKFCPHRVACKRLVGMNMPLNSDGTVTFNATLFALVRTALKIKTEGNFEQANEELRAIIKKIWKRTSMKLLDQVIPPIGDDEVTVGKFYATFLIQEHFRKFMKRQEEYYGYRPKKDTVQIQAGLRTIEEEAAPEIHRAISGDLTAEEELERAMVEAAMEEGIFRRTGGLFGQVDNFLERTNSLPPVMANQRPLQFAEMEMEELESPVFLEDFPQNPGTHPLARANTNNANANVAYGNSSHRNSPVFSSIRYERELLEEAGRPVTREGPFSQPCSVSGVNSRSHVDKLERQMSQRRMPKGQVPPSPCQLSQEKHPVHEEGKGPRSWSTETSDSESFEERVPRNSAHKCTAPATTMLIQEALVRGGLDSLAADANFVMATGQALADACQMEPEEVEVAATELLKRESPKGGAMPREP
UniProt P60570: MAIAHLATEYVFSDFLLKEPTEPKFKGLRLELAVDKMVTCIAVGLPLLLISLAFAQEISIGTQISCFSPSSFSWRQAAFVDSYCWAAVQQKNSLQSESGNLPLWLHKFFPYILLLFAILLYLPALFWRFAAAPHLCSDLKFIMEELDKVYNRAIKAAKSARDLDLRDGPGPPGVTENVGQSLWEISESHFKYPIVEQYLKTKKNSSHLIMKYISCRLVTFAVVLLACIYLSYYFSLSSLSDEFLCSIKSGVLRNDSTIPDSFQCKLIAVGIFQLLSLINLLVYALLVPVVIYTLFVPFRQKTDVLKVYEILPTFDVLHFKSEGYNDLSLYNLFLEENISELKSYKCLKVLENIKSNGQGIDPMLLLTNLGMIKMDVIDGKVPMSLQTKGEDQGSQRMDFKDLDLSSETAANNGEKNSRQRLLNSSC
UniProt Q9JIP4: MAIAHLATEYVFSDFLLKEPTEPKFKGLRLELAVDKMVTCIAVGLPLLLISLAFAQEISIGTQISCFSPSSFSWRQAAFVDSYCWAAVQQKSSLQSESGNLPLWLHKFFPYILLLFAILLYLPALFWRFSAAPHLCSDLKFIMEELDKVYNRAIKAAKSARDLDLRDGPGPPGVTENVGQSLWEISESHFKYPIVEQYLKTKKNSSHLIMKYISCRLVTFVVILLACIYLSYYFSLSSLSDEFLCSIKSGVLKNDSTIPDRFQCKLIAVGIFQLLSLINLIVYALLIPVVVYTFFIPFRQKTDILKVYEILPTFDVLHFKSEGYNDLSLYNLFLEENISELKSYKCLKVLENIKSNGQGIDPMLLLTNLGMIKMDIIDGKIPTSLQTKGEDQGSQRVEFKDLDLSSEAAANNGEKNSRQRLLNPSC
UniProt P11531: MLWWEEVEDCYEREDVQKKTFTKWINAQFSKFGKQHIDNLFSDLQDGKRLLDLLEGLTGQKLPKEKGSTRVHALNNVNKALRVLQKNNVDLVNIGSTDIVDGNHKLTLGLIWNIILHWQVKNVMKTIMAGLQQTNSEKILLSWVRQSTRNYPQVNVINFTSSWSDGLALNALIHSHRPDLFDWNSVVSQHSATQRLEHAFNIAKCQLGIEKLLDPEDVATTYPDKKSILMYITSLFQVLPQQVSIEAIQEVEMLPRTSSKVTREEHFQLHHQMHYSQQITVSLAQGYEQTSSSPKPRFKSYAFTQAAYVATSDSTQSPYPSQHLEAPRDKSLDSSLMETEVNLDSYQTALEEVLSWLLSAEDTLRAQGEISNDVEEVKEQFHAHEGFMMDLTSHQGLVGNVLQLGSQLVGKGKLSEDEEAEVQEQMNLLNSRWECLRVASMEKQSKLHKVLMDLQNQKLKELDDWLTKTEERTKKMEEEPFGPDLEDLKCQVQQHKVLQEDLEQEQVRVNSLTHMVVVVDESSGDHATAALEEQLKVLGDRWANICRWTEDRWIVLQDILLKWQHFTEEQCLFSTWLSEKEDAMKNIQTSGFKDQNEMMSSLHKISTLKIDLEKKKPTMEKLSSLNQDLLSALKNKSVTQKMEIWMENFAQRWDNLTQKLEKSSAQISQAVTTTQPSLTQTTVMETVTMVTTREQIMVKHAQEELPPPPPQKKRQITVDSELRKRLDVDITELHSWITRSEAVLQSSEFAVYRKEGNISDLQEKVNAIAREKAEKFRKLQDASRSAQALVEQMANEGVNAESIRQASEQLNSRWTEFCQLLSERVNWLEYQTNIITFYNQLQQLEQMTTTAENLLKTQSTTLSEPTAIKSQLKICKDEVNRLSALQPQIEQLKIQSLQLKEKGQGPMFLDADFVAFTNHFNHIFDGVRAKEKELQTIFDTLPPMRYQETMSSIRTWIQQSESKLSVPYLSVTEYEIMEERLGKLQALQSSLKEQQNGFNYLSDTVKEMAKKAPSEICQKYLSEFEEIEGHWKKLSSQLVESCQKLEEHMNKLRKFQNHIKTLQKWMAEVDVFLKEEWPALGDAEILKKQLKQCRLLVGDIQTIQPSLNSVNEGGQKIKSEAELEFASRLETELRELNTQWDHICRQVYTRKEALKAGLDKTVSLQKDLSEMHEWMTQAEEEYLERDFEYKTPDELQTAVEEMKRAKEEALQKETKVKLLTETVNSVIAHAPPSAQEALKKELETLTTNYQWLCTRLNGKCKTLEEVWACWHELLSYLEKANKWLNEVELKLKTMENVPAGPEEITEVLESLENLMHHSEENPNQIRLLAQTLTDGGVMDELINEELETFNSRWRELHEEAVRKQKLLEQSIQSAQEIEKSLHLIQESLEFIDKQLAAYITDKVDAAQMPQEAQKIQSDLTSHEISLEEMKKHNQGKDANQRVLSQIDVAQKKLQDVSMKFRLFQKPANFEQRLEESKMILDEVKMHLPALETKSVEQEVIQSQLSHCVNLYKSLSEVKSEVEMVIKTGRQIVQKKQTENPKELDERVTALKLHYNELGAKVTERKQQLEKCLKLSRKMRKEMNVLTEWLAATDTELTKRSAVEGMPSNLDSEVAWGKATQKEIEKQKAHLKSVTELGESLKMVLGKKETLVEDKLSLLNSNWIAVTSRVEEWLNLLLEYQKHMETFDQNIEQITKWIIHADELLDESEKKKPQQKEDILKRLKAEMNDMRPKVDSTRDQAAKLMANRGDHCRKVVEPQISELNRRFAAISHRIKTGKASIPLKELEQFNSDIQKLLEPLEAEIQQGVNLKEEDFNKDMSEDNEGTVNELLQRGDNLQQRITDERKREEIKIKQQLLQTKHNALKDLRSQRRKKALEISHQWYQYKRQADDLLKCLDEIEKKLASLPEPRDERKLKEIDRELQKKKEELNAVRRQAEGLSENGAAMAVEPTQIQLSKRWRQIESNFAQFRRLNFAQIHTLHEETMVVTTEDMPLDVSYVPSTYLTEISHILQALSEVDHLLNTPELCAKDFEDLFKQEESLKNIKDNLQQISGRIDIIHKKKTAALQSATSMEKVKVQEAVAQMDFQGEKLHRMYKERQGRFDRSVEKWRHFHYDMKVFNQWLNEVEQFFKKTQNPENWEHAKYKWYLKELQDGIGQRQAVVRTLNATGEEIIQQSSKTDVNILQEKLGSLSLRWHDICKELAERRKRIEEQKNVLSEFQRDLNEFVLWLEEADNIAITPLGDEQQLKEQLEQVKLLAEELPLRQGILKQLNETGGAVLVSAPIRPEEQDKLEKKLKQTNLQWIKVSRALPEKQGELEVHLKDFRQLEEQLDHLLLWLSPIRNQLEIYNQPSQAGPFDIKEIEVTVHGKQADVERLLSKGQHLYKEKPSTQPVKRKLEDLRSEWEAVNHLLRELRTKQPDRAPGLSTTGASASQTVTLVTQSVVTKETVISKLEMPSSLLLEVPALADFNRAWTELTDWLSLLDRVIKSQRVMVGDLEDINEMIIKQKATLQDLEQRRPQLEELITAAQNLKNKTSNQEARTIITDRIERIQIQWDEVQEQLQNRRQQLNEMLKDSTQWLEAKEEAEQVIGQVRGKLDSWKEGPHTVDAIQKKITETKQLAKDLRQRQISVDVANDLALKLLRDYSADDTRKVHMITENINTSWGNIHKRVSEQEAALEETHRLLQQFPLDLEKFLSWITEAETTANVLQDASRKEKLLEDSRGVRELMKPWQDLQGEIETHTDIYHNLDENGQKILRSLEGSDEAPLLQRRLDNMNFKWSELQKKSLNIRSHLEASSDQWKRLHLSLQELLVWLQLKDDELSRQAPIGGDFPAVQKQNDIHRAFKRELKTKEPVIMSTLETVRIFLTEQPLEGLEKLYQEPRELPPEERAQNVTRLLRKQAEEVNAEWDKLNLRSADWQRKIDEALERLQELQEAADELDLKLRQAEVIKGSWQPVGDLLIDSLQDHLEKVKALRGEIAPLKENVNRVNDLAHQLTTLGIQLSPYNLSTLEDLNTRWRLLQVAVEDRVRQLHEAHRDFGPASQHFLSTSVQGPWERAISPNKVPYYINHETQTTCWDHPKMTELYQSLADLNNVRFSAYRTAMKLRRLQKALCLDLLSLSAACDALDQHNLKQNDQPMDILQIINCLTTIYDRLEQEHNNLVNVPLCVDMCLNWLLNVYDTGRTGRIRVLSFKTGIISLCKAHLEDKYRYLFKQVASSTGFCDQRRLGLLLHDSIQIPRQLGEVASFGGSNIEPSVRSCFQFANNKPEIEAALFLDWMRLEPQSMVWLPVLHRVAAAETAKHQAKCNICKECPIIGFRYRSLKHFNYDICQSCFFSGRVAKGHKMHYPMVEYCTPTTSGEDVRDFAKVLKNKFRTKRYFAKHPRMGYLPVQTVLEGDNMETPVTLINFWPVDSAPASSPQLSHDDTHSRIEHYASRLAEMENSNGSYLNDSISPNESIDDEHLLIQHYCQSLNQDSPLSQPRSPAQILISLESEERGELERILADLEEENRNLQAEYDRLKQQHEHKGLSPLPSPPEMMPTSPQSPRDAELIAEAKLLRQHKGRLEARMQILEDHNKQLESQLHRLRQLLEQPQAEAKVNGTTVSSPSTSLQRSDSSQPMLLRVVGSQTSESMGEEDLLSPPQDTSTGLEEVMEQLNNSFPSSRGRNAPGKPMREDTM

Experiments:
[1] = target: dihydropyridine receptor (DHPR, Cav1.1), mouse (mouse (endogenous in BalbC/C57 muscle triads and FDB fibers)) (UniProt Q02789); experiment: native gel or EMSA; blue native SDS-PAGE of mouse triads, data not shown
[2] = target: dihydropyridine receptor (DHPR, Cav1.1), mouse (mouse (endogenous in BalbC/C57 muscle triads and FDB fibers)) (UniProt Q02789); experiment: proximity ligation; in situ PLA (Duolink II), isolated mouse FDB fibers; dots when the two proteins are closer than 40 nm; confocal z-stacks
[3] = target: dihydropyridine receptor (DHPR, Cav1.1), mouse (mouse (endogenous in BalbC/C57 muscle triads and FDB fibers)) (UniProt Q02789); experiment: co-IP; triad-enriched fractions (100 μg protein) from adult BalbC mouse back and hind limb muscles, solubilized in lysis buffer with 0.1 % Nonidet P-40, 140 mM NaCl, pH 7.4; pre-cleared; antibody 4 h, protein A/G agarose; immunoblot
[4] = target: dihydropyridine receptor (DHPR, Cav1.1), mouse (mouse (endogenous in BalbC/C57 muscle triads and FDB fibers)) (UniProt Q02789); experiment: native gel or EMSA; 2D blue native SDS-PAGE of triad samples (rat, BalbC mouse, C57 mouse) solubilized with digitonin; first dimension native 3-8 % gel at 4 °C, second dimension SDS-PAGE after 2-mercaptoethanol; immunoblot, proteins in a same vertical line
[5] = target: dihydropyridine receptor (DHPR, Cav1.1), rat (rat (endogenous in rat muscle triads, rat myotubes and L6 cells)) (UniProt Q02485); experiment: proximity ligation; in situ PLA (Duolink II), intact L6-Panx1 myotubes; dots when the two proteins are closer than 40 nm
[6] = target: dihydropyridine receptor (DHPR, Cav1.1), rat (rat (endogenous in rat muscle triads, rat myotubes and L6 cells)) (UniProt Q02485); experiment: co-IP; whole lysates from L6-Panx1 myotubes; immunoprecipitation with anti-Panx1, anti-DHPR and anti-P2Y2R antibodies; immunoblot
[7] = target: dihydropyridine receptor (DHPR, Cav1.1), rat (rat (endogenous in rat muscle triads, rat myotubes and L6 cells)) (UniProt Q02485); experiment: co-IP; cell extracts from newborn-derived rat myotubes; antibody and protein A/G agarose; immunoblot
[8] = target: pannexin 1 (Panx1), rat (rat (endogenous in rat muscle triads and rat myotubes)) (UniProt P60570); experiment: as above
[9] = target: Panx1 fused to the Twin-Strep-tag at the C terminus, in L6-Panx1 cells (UniProt Q96RD7); experiment: co-IP; whole lysates from L6-Panx1 myotubes; immunoprecipitation with anti-Panx1, anti-DHPR and anti-P2Y2R antibodies; immunoblot
[10] = target: dihydropyridine receptor (DHPR, Cav1.1), rat (rat (endogenous in rat muscle triads, rat myotubes and L6 cells)) (UniProt Q02485); experiment: native gel or EMSA; 2D blue native SDS-PAGE of triad samples (rat, BalbC mouse, C57 mouse) solubilized with digitonin; first dimension native 3-8 % gel at 4 °C, second dimension SDS-PAGE after 2-mercaptoethanol; immunoblot, proteins in a same vertical line
[11] = target: pannexin 1 (Panx1), rat (rat (endogenous in rat muscle triads and rat myotubes)) (UniProt P60570); experiment: as above
[12] = target: pannexin 1 (Panx1), mouse (mouse (endogenous in BalbC/C57 muscle triads and FDB fibers)) (UniProt Q9JIP4); experiment: co-IP; triad-enriched fractions (100 μg protein) from adult BalbC mouse back and hind limb muscles, solubilized in lysis buffer with 0.1 % Nonidet P-40, 140 mM NaCl, pH 7.4; pre-cleared; antibody 4 h, protein A/G agarose; immunoblot
[13] = target: pannexin 1 (Panx1), mouse (mouse (endogenous in BalbC/C57 muscle triads and FDB fibers)) (UniProt Q9JIP4); experiment: native gel or EMSA; 2D blue native SDS-PAGE of triad samples (rat, BalbC mouse, C57 mouse) solubilized with digitonin; first dimension native 3-8 % gel at 4 °C, second dimension SDS-PAGE after 2-mercaptoethanol; immunoblot, proteins in a same vertical line
[14] = target: P2Y2 receptor (P2Y2R), mouse (mouse (endogenous in BalbC/C57 muscle triads and FDB fibers)) (UniProt P35383); experiment: co-IP; triad-enriched fractions (100 μg protein) from adult BalbC mouse back and hind limb muscles, solubilized in lysis buffer with 0.1 % Nonidet P-40, 140 mM NaCl, pH 7.4; pre-cleared; antibody 4 h, protein A/G agarose; immunoblot
[15] = target: P2Y2 receptor (P2Y2R), rat (rat (endogenous in rat muscle triads, rat myotubes and L6 cells)) (UniProt P41232); experiment: co-IP; cell extracts from newborn-derived rat myotubes; antibody and protein A/G agarose; immunoblot
[16] = target: P2Y2 receptor (P2Y2R), rat (rat (endogenous in rat muscle triads, rat myotubes and L6 cells)) (UniProt P41232); experiment: co-IP; whole lysates from L6-Panx1 myotubes; immunoprecipitation with anti-Panx1, anti-DHPR and anti-P2Y2R antibodies; immunoblot
[17] = target: P2Y2 receptor (P2Y2R), mouse (mouse (endogenous in BalbC/C57 muscle triads and FDB fibers)) (UniProt P35383); experiment: proximity ligation; in situ PLA (Duolink II), isolated mouse FDB fibers; dots when the two proteins are closer than 40 nm; confocal z-stacks
[18] = target: pannexin 1 (Panx1), mouse (mouse (endogenous in BalbC/C57 muscle triads and FDB fibers)) (UniProt Q9JIP4); experiment: as above

binding [1]: binds
Molecule: ryanodine receptor 1 (RyR1), mouse (from UniProt E9PZQ0 1-5035)

binding [2]: binds
binding [3]: binds
binding [4]: binds
Molecule: pannexin 1 (Panx1), mouse (from UniProt Q9JIP4 1-426)

binding [5]: binds
binding [6]: binds
Molecule: Panx1 fused to the Twin-Strep-tag at the C terminus, in L6-Panx1 cells (from UniProt Q96RD7 1-426)

binding [7]: binds
binding [8]: binds
binding [5]: binds
binding [9]: binds
binding [6]: binds
binding [10]: binds
binding [11]: binds
Molecule: P2Y2 receptor (P2Y2R), rat (from UniProt P41232 1-374)

binding [7]: binds
binding [10]: binds
Molecule: pannexin 1 (Panx1), rat (from UniProt P60570 1-426)

binding [2]: binds
binding [3]: binds
binding [12]: binds
binding [4]: binds
binding [13]: binds
Molecule: P2Y2 receptor (P2Y2R), mouse (from UniProt P35383 1-373)

binding [14]: binds
binding [3]: binds
binding [12]: binds
Molecule: dystrophin (Dys), mouse (from UniProt P11531 1-3678)

binding [15]: binds
binding [7]: binds
binding [8]: binds
binding [16]: binds
binding [9]: binds
binding [6]: binds
Molecule: dystrophin (Dys), rat (from UniProt P11530 1-3677)

binding [5]: no binding
B1: Lamina-associated polypeptide 2 (Lap2), rat (protein, UniProt Q62733 1-452)
chain: MPEFLEDPSVLTKDKLKSELVANNVTLPAGEQRKDVYVQLYLQHLTARNRPPLAAGANSKGPPDFSSDEEREPTPVLGSGASVGRGRGAVGRKATKKTDKPRPEDKDDLDVTELSNEELLEQLVRYGVNPGPIVGTTRKLYEKKLLKLREQGAESRSSTPLPTVSSSAENTRQNGSNDSDRYSDNDEDSKIELKLEKREPLKGRAKTPVTLKQRRIEHNQSYSEAGVTETEWTSGSSKGGPLQALTRESTRGSRRTPRRRVEPSQHFRVDGAVISESTPIAETIKASSNDSLVANRLTGNFKHASSILPITEFSDITRRTPKKPLTRAEVGEKTEERRVERDILKEMFPYEASTPTGISASCRRPIKGAAGRPLELSDFRMEESFSSKYVPKYVPLADVKSEKTKKGRSVPMWIKMLLFALVAGFLFLVYQAMETNQGNPFTNFLQDTKISN

binding [17]: binds
binding [2]: binds
binding [18]: binds
binding [4]: binds
binding [13]: binds
B2: caveolin-3 (Cav3), mouse (protein, UniProt P51637 1-151)
chain: MMTEEHTDLEARIIKDIHCKEIDLVNRDPKNINEDIVKVDFEDVIAEPEGTYSFDGVWKVSFTTFTVSKYWCYRLLSTLLGVPLALLWGFLFACISFCHIWAVVPCIKSYLIEIQCISHIYSLCIRTFCNPLFAALGQVCSNIKVVLRREG
